Laboratory results taken from PubChem BioAssay AID2685 (National Center for Advancing Translational Sciences (NCATS), 2010).
This is one part of the list. Further columns of the screen follow, without active or inactive calls. The list favours compounds with an active or inconclusive main result. Potencies come from curve fits of mixed quality, noted in brackets.

Test: qHTS Assay for Lipid Storage Modulators in Drosophila S3 Cells;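 for cell number change: cells counted by Cell Tracker Red CMTPX staining in the red channel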
Conditions: BODIPY lipid droplet fluorescence, 18-24 h; for cell number change: measured here: cell count max response, cells fed with added oleic acid
In short: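 Drosophila S3 cells got compounds at several concentrations plus oleic acid (400 uM solution). Laser-scanning cytometry with 488 nm excitation read lipid droplets at 500-530 nm and cells at 575-640 nm. Percent activity was relative to 20 uM Triacsin C.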

[1] = measured here: cell number channel AC50, cells fed with added oleic acid
[2] = measured here: lipid fluorescence (Fed channel) AC50, cells fed with added oleic acid

| SMILES | cell number change [%] | AC50 [1] | AC50 [2] |
| --- | --- | --- | --- |
| O=C(COc1cccc(Oc2ccccc2)c1)Nc1ccc(SC(F)F)cc1 | 57.9 | 29.1 µM [rising, single point] | – |
| CC(C)NS(=O)(=O)c1ccc(OCC(=O)NCCC2=CCCCC2)cc1 | 6.2 | – | 0.0731 µM [falling, full curve, poor fit] |
| CCCCCCCCCCCCCCCC(O)C(N)CO (centres undefined) | 14.1 | – | 0.0731 µM [falling, full curve, poor fit] |
| Cc1ccc(-c2nc(-c3ccncc3)no2)cc1Cl | 24 | – | 2.06 µM [rising, full curve] |
| CSc1c(-c2ccccn2)c(N)nn1C(=O)C1CC1 | -34.6 | 18.4 µM [falling, single point] | 25.9 µM [falling, single point] |
| Cc1cccc(NC(=O)CSc2nnc(-c3ccccc3)n2N)c1 | -53.2 | 29.1 µM [falling, single point] | – |
| CCc1ccc(NS(=O)(=O)c2ccc3[nH]cc(C(=O)N4CCc5ccccc54)c(=O)c3c2)cc1 | 7.5 | – | 25.9 µM [rising, partial curve, poor fit] |
| CC1CC(C)(C)NC(=S)N1CCC(=O)N1c2ccccc2CC1C (centres undefined) | 46 | 0.231 µM [rising, full curve, poor fit] | – |
| COc1ccc(OC)c(/C=N/NC(=O)CSc2cc(C)nc3c(OC)cccc23)c1 | -68.2 | 16.4 µM [falling, partial curve] | 20.6 µM [falling, partial curve, poor fit] |
| O=C(NN1C(=O)c2cc(Br)ccc2NC1c1ccccc1Cl)c1ccncc1 (centres undefined) | 13.4 | 1.64 µM [rising, partial curve, poor fit] | 0.82 µM [rising, full curve, poor fit] |
| O=C(NC(Cc1ccc2c(c1)OCO2)C(=O)NC(Cc1ccccc1)C(=O)O)c1ccccc1 (centres undefined) | 4.96 | – | – |
| Cc1[nH][nH]c(=O)c1C(c1ccc(-c2ccccc2C(=O)O)o1)c1c(C)[nH][nH]c1=O | -29 | – | 0.731 µM [rising, single point] |
| CCn1nc(C(=O)Nc2cc(Cl)ccc2-n2cncn2)c2ccccc2c1=O | -14.4 | – | 5.17 µM [rising, partial curve] |
| CCOc1cc(C2CC(=O)NC(SCC)=C2C#N)ccc1O (centres undefined) | 9.45 | – | 29.1 µM [rising, single point] |
| O=C(OCc1nnc(-c2ccccc2)o1)c1cn(-c2ccccc2)nc1-c1ccccc1 | -32.1 | 16.4 µM [falling, single point] | 29.1 µM [falling, single point] |
| Cc1nnc(C)n1/N=C/C=C/c1ccccc1 | -5.18 | 0.164 µM [falling, full curve, poor fit] | 0.116 µM [falling, full curve, poor fit] |
| COc1ccc(S(=O)(=O)Cc2ccccc2)cc1N | 7.65 | – | 0.366 µM [rising, partial curve] |
| CCOC(=O)CCCNC(=O)CN1C(=O)NC(CCc2ccccc2)C1=O (centres undefined) | -6.6 | – | – |

| SMILES | cell number change [%] | AC50 [1] | AC50 [2] |
| --- | --- | --- | --- |
| Clc1ccc(CSc2ccc(-c3ccccn3)nn2)cc1 | -3.73 | – | 0.13 µM [falling, full curve, poor fit] |
| COC(CNC(=O)c1cccc2c1C(=O)N(Cc1cccnc1)C2)OC | – | 6.51 µM [rising, single point] | – |
| CCN1C(=O)[C@H]2[C@@H](c3ccc(C)cc3)N3C(=O)N(c4ccccc4)C(=O)[C@@]3(C)[C@H]2C1=O | -8.74 | – | – |
| O=C(N/N=C/C=C\c1ccccc1[N+](=O)[O-])c1ccccn1 | 22.7 | – | 4.61 µM [rising, full curve, poor fit] |
| CS(=O)(=O)N(CC(=O)NCCSC1CCCCC1)c1cccc(F)c1 | -13 | – | 0.00461 µM [falling, full curve, poor fit] |
| Cc1ccc(S(=O)(=O)NCCCNC(=O)N2CCOCC2)cc1 | -15.1 | – | 2.31 µM [falling, full curve] |
| O=C(CSc1nnc2scc(-c3ccc(Cl)cc3)n12)NCc1ccc2c(c1)OCO2 | -35.2 | 29.1 µM [falling, single point] | – |
| CCCCc1cc(=O)oc2cc(OCC(=O)N(CC)CC)c(Cl)cc12 | – | 0.58 µM [rising, single point] | 1.3 µM [rising, full curve, poor fit] |
| COc1cccc(N(C(=O)c2snc(C(N)=O)c2N)C(C(=O)NCC2CCCO2)c2ccc(C)o2)c1 (centres undefined) | 17.4 | – | 0.651 µM [rising, full curve] |
| O=C(NNS(=O)(=O)c1ccc(F)cc1)c1ccccc1F | -8.52 | – | – |
| COc1ccc(OC)c(NC(=S)N2CCc3ccccc3C2)c1 | 14.8 | – | 16.4 µM [rising, partial curve] |
| CCOC(=O)c1cccc(C2=CC(=O)C[C@H](c3ccc(OC)c(OC)c3)C2)c1 | 8.04 | – | 29.1 µM [falling, single point] |
| COc1ccc(NC(=O)NNC(=O)CCC(=O)Nc2ccccc2Cl)cc1 | -1.64 | 5.8 µM [falling, single point] | 4.61 µM [falling, single point] |
| Cc1cc(C)cc(NC(=S)NCc2ccc(F)cc2)c1 | -60.4 | 29.1 µM [falling, single point] | – |
| Nc1nc(NS(=O)(=O)c2ccc(Cl)cc2)nn1-c1ccccc1 | 9.38 | – | 6.51 µM [falling, single point] |
| Cc1[nH]nc(-c2ccc(OCc3cnn(-c4ccccc4)c3)cc2O)c1Oc1ccc(Cl)cc1 | -40 | 32.6 µM [falling, partial curve, poor fit] | 20.6 µM [rising, single point] |
| O=C(CCC1CCCC1)Nc1ccon1 | 6.47 | – | 0.0517 µM [rising, partial curve, poor fit] |
| O/N=C/c1cc(Cl)ccc1OCc1cccc2ccccc12 | -32.9 | 20.6 µM [falling, partial curve, poor fit] | – |

Whole records, quoted from the list. Order of values: cell number change [%]	AC50 [1]	AC50 [2]
`CCN1C(=O)[C@H]2[C@@H](c3ccc(C)cc3)N3C(=O)N(c4ccccc4)C(=O)[C@@]3(C)[C@H]2C1=O` reads -8.74	–	–
`O=C(N/N=C/C=C\c1ccccc1[N+](=O)[O-])c1ccccn1` reads 22.7	–	4.61 µM [rising, full curve, poor fit]
